For at least one entry, the source does not settle the construct or the ends of the probe. Weaker means in comparison with the reference protein, sequence or condition of that experiment. For some assays here: Where a protein sequence is shown, tags need not be part of it.
Tests used:
Assay in all cases: aptamer-antibody sandwich chemiluminescence on streptavidin wells
Conditions in all cases: 1 ng/mL protein in artificial serum (PBS), read-out also needs anti-RBP4 antibody; Binding buffer 20 mM Tris-HCl pH 7.6, 100 mM NaCl, 2 mM MgCl2, 5 mM KCl, 1 mM CaCl2, 0.02% Tween-20; RBP4 1 h (temperature not stated); commercial protein; label: 5' biotin; single-stranded DNA
[1] = biological target: BSA (bovine serum albumin) (Bos taurus) (UniProt P02769)
[2] = biological target: HSA (human serum albumin) (Homo sapiens) (UniProt P02768)
[3] = system: fibrinogen (Homo sapiens)
insulin = system: insulin
vaspin = biological target: T1, vaspin (UniProt Q8IW75)
T1 sequence (looked up, limits assumed): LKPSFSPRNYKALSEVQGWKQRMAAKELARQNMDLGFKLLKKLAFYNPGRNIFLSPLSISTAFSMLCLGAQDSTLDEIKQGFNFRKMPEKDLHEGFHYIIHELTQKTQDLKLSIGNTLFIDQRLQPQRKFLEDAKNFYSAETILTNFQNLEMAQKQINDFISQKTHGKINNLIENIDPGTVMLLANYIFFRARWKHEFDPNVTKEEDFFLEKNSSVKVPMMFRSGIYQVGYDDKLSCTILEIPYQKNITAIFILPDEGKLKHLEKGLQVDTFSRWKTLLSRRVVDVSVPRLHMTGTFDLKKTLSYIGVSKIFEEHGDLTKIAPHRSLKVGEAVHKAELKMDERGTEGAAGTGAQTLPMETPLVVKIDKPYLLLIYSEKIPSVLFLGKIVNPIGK

Chains of the proteins cited; added tags and fusions are not shown. Chains listed by the source or under a name are the forms on record and can include a tag or linker. Residues count along the entry.
UniProt P02769, 25-607: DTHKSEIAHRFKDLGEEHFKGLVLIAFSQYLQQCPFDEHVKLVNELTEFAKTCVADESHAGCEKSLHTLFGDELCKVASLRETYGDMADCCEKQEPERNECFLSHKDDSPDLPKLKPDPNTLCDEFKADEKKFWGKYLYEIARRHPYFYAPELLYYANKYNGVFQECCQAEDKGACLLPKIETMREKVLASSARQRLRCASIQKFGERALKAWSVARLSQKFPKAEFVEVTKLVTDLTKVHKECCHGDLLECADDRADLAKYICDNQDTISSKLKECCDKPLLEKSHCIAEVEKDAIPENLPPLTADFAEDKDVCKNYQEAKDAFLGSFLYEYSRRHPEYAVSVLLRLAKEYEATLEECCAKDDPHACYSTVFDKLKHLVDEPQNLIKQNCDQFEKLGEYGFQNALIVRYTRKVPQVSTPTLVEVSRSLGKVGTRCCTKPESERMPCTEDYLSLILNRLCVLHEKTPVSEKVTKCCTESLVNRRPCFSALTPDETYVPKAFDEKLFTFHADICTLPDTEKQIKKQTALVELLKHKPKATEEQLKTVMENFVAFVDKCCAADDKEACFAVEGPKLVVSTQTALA
fibrinogen (Homo sapiens), one chain, as listed by the source, chain 1 of 3: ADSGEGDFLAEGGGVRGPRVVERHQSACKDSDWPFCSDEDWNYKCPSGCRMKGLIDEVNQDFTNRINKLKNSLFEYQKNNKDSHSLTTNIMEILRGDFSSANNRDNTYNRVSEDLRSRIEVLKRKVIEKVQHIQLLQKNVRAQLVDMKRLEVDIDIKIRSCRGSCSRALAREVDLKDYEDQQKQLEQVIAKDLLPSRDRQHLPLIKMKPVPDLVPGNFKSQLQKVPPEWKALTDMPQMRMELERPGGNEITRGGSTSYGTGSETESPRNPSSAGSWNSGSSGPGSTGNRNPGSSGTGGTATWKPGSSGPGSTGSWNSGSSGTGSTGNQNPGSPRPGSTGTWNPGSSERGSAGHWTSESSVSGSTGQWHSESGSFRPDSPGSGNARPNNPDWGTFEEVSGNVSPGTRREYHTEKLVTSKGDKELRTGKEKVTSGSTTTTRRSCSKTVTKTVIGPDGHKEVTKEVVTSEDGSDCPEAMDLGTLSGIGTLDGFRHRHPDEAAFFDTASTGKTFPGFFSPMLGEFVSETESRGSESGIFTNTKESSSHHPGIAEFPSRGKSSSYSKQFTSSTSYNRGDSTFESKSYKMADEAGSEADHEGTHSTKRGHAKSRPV
fibrinogen (Homo sapiens), one chain, as listed by the source, chain 2 of 3: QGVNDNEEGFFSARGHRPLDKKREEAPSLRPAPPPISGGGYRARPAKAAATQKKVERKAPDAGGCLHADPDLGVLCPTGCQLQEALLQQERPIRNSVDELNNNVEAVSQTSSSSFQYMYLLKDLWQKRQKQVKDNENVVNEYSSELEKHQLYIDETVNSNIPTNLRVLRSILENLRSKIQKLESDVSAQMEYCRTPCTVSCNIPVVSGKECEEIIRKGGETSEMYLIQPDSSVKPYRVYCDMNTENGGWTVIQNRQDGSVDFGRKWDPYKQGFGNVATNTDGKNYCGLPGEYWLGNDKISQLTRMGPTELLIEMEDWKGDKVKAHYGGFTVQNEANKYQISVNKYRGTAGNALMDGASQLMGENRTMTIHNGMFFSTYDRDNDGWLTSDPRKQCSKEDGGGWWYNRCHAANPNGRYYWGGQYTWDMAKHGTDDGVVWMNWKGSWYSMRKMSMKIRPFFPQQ
fibrinogen (Homo sapiens), one chain, as listed by the source, chain 3 of 3: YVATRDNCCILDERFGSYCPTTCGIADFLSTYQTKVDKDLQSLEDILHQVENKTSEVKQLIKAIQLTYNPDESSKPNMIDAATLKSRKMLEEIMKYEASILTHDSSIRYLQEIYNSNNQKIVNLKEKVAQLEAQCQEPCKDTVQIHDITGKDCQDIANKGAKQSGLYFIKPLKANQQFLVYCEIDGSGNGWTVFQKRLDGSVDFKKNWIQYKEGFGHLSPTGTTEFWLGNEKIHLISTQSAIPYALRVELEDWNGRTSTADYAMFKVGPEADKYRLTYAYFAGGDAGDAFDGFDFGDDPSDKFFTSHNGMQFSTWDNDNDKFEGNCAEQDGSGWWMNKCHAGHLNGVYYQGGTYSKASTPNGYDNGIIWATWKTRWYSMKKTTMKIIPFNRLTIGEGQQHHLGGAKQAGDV

Measured: binding result

TTTTTTTTTTATACCAGCTTATTCAATTACAGTAGTGAGGGGTCCGTCGTGGGGTAGTTGGGTCGTGGAGATAGTAAGTGCAATCT [RBA (RBP4 aptamer), biotin-T10]
binds more weakly: all assays above
